Experimental data reported in PMC7852611.
These are yes or no findings as the source states them, for the method shown. Binding seen in cells or lysates may run through a third protein. A result given as binding can be weak or reduced; the word gives no strength. Tags and fused reporters may be left off the sequences shown.

Biological target: Flag-labeled β-catenin 12 armadillo repeats (12 × arm)
Experiment: co-IP; Flag-labeled β-catenin fragments expressed in mGFP-AQP1/HEK-293T or HEK-293T cells; lysates; western blot

binding: binds
B1: mGFP-AQP1 (protein, UniProt P29972 1-269)
chain: MASEFKKKLFWRAVVAEFLATTLFVFISIGSALGFKYPVGNNQTAVQDNVKVSLAFGLSIATLAQSVGHISGAHLNPAVTLGLLLSCQISIFRALMYIIAQCVGAIVATAILSGITSSLTGNSLGRNDLADGVNSGQGLGIEIIGTLQLVLCVLATTDRRRRDLGGSAPLAIGLSVALGHLLAIDYTGCGINPARSFGSAVITHNFSNHWIFWVGPFIGGALAVLIYDFILAPRSSDLTDRVKVWTSGQVEEYDLDADDINSRVEMKPK
